{"source": "PubChem BioAssay AID504744 | Drosophila RNAi Screening Center – 2011", "test": "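Uncover factors, including feedback loops, that control dAkt activation in fly cells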 (primary screen)", "cell system": "Drosophila Kc167 cells", "reagent": "long dsRNA against Drosophila genes, 250 ng dsRNA per well of a 384-well plate", "time to read-out": "3 days of knock-down, then overnight serum-free starvation before stimulation", "challenge": "bovine insulin at 387 nM for 10 minutes after 12 h without serum", "detection": "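In-cell antibody fluorescence for phospho-dAkt in each well over DNA-dye signal, with log2 residuals expressed as z-scores adjusted for cell count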", "active means": "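Under insulin, a gene counts as a hit if the average z-score of two replicates lies above 2.5 or below -2.5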", "note": "The screen tested about 23,000 reagents; shown is a random part of those that have a named target and a result. Of all reagents, 98 (0.43%) were called active. 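Only hit calls are given; the phospho-dAkt signals, z-scores and hit direction were not deposited.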 Reagents against one gene are numbered here. A plus sign joins genes that one reagent is predicted to hit."}
{"gene knocked down":"Cchl (Cytochrome c heme lyase)","dsRNA no.":1,"call":"inactive"}
{"gene knocked down":"CG34284","dsRNA no.":1,"call":"inactive"}
{"gene knocked down":"Gr59a (Gustatory receptor 59a)","dsRNA no.":1,"call":"inactive"}
{"gene knocked down":"hpRNA:CR32205 (hairpin RNA:CR32205)","dsRNA no.":1,"call":"inactive"}
{"gene knocked down":"CG13051","dsRNA no.":1,"call":"inactive"}
{"gene knocked down":"CG18304","dsRNA no.":1,"call":"inactive"}
{"gene knocked down":"DIP-iota (Dpr-interacting protein iota)","dsRNA no.":1,"call":"inactive"}
{"gene knocked down":"CG32679","dsRNA no.":1,"call":"inactive"}
{"gene knocked down":"CG33639","dsRNA no.":1,"call":"inactive"}
{"gene knocked down":"CG33639","dsRNA no.":2,"call":"inactive"}
{"gene knocked down":"CG31326","dsRNA no.":1,"call":"inactive"}
{"gene knocked down":"st (scarlet)","dsRNA no.":1,"call":"inactive"}
{"gene knocked down":"CG3662","dsRNA no.":1,"call":"inactive"}
{"gene knocked down":"Arp10 (Actin-related protein 10)","dsRNA no.":1,"call":"inactive"}
{"gene knocked down":"epsilonCOP (Coat Protein (coatomer) epsilon)","dsRNA no.":1,"call":"inactive"}
{"gene knocked down":"CG15615","dsRNA no.":1,"call":"inactive"}
{"gene knocked down":"CG12057","dsRNA no.":1,"call":"inactive"}
{"gene knocked down":"Rnf11 (Ring finger protein 11)","dsRNA no.":1,"call":"inactive"}
{"gene knocked down":"Adss (Adenylosuccinate synthetase)","dsRNA no.":1,"call":"inactive"}
{"gene knocked down":"lok (loki)","dsRNA no.":1,"call":"inactive"}
{"gene knocked down":"Spn31A (Serpin 31A)","dsRNA no.":1,"call":"inactive"}
{"gene knocked down":"LamC (Lamin C)","dsRNA no.":1,"call":"inactive"}
{"gene knocked down":"CG10562","dsRNA no.":1,"call":"inactive"}
{"gene knocked down":"croc (crocodile)","dsRNA no.":1,"call":"inactive"}
{"gene knocked down":"bif (bifocal)","dsRNA no.":1,"call":"inactive"}
{"gene knocked down":"bif (bifocal)","dsRNA no.":2,"call":"inactive"}
{"gene knocked down":"nemy (no extended memory)","dsRNA no.":1,"call":"inactive"}
{"gene knocked down":"nemy (no extended memory)","dsRNA no.":2,"call":"active"}
{"gene knocked down":"lobo (lost boys)","dsRNA no.":1,"call":"inactive"}
{"gene knocked down":"lobo (lost boys)","dsRNA no.":2,"call":"inactive"}
{"gene knocked down":"CG11980","dsRNA no.":1,"call":"inactive"}
{"gene knocked down":"Pdcd4 (Programmed cell death 4)","dsRNA no.":1,"call":"inactive"}
{"gene knocked down":"CG10576","dsRNA no.":1,"call":"inactive"}
{"gene knocked down":"Qsox2 (Quiescin sulfhydryl oxidase 2)","dsRNA no.":1,"call":"inactive"}
{"gene knocked down":"Kpc1 (Kip1 ubiquitination-promoting complex subunit 1)","dsRNA no.":1,"call":"inactive"}
{"gene knocked down":"CG7488","dsRNA no.":1,"call":"inactive"}
{"gene knocked down":"gbb (glass bottom boat)","dsRNA no.":1,"call":"inactive"}
{"gene knocked down":"CG3860","dsRNA no.":1,"call":"inactive"}
{"gene knocked down":"CG31683 + CG18858","dsRNA no.":1,"call":"inactive"}
{"gene knocked down":"AOX4 (Aldehyde oxidase 4)","dsRNA no.":1,"call":"inactive"}
{"gene knocked down":"CG11858","dsRNA no.":1,"call":"inactive"}
{"gene knocked down":"CG3955","dsRNA no.":1,"call":"inactive"}
{"gene knocked down":"CG11381","dsRNA no.":1,"call":"inactive"}
{"gene knocked down":"CG14212","dsRNA no.":1,"call":"inactive"}
{"gene knocked down":"CG1146","dsRNA no.":1,"call":"inactive"}
{"gene knocked down":"CG15708","dsRNA no.":1,"call":"inactive"}
{"gene knocked down":"exu (exuperantia)","dsRNA no.":1,"call":"inactive"}
{"gene knocked down":"Sr-CII (Scavenger receptor class C, type II)","dsRNA no.":1,"call":"inactive"}
{"gene knocked down":"ng4 (new glue 4)","dsRNA no.":1,"call":"inactive"}
{"gene knocked down":"CG14052","dsRNA no.":1,"call":"inactive"}
{"gene knocked down":"CG14052","dsRNA no.":2,"call":"inactive"}
{"gene knocked down":"Adgf-E (Adenosine deaminase-related growth factor E)","dsRNA no.":1,"call":"inactive"}
{"gene knocked down":"Btk (Bruton tyrosine kinase)","dsRNA no.":1,"call":"inactive"}
{"gene knocked down":"Btk (Bruton tyrosine kinase)","dsRNA no.":2,"call":"inactive"}
{"gene knocked down":"Btk (Bruton tyrosine kinase)","dsRNA no.":3,"call":"inactive"}
{"gene knocked down":"Traf-like (TNF-receptor-associated factor-like)","dsRNA no.":1,"call":"inactive"}
{"gene knocked down":"Gr22d (retired record)","dsRNA no.":1,"call":"inactive"}
{"gene knocked down":"Bem46","dsRNA no.":1,"call":"inactive"}
{"gene knocked down":"velo (veloren)","dsRNA no.":1,"call":"inactive"}
{"gene knocked down":"velo (veloren)","dsRNA no.":2,"call":"inactive"}
{"gene knocked down":"Best3 (Bestrophin 3)","dsRNA no.":1,"call":"inactive"}
{"gene knocked down":"SerRS-m (Seryl-tRNA synthetase, mitochondrial)","dsRNA no.":1,"call":"inactive"}
{"gene knocked down":"ey (eyeless)","dsRNA no.":1,"call":"inactive"}
{"gene knocked down":"CG32409","dsRNA no.":1,"call":"inactive"}
{"gene knocked down":"Ip259 (Intronic Protein 259)","dsRNA no.":1,"call":"inactive"}
{"gene knocked down":"Atac1 (Ada2a-containing complex component 1)","dsRNA no.":1,"call":"inactive"}
{"gene knocked down":"CG8642","dsRNA no.":1,"call":"inactive"}
{"gene knocked down":"CR40450 + CG32767","dsRNA no.":1,"call":"inactive"}
{"gene knocked down":"gry (gryzun)","dsRNA no.":1,"call":"inactive"}
{"gene knocked down":"gry (gryzun)","dsRNA no.":2,"call":"inactive"}
{"gene knocked down":"Zmynd8 (Zinc finger MYND-type containing 8)","dsRNA no.":1,"call":"inactive"}
{"gene knocked down":"Phk-3 (Pherokine 3)","dsRNA no.":1,"call":"inactive"}
{"gene knocked down":"Ifrd1 (Interferon-related developmental regulator 1)","dsRNA no.":1,"call":"inactive"}
{"gene knocked down":"Ifrd1 (Interferon-related developmental regulator 1)","dsRNA no.":2,"call":"inactive"}

Targets above whose target name starts with L or l (4):
{"gene knocked down":"lok (loki)","dsRNA no.":1,"call":"inactive"}
{"gene knocked down":"LamC (Lamin C)","dsRNA no.":1,"call":"inactive"}
{"gene knocked down":"lobo (lost boys)","dsRNA no.":1,"call":"inactive"}
{"gene knocked down":"lobo (lost boys)","dsRNA no.":2,"call":"inactive"}
